Record: PubChem BioAssay AID493246 (Drosophila RNAi Screening Center, 2011)
The screen tested about 21,000 reagents; shown is a random part of those that have a named target and a result. Of all reagents, 429 (2%) were called active. 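Values are raw and not normalised between plates; calls rest on per-plate z-scores that were not deposited.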 The numbers tell different reagents against one gene apart. Names joined by + are all predicted targets of the reagent. Not stated in the record: the amount of reagent, the time to read-out.

Purpose: 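Identify essential fly genes by loss of cell viability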 (primary screen)
System: Drosophila Kc and S2R+ cells
Reagent: long dsRNA against Drosophila genes
Measurement: 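Cell number per well after knock-down, printed as raw plate values; calls were based on per-plate z-scores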
Reading the numbers: Kc cell number and S2R+ cell number: higher = more cells remaining
Rule for the call: 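Active when the per-plate z-score of cell number is 3 or more in the direction of fewer cells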

The first 2 entries, to show the layout:
target gene	dsRNA no.	Kc cell number, rep 1	Kc cell number, rep 2	S2R+ cell number, rep 1	S2R+ cell number, rep 2	Call
CG31882	1	1.50e6	1.54e6	9.87e5	1.09e6	inactive
CG32733 (retired record) + CG32797	1	1.40e6	1.41e6	9.36e5	1.07e6	inactive

Main list, from the start:
target gene	dsRNA no.	Kc cell number, rep 1	Kc cell number, rep 2	S2R+ cell number, rep 1	S2R+ cell number, rep 2	Call
CG31882	1	1.50e6	1.54e6	9.87e5	1.09e6	inactive
CG32733 (retired record) + CG32797	1	1.40e6	1.41e6	9.36e5	1.07e6	inactive
Chs2 (Chitin synthase 2)	1	1.51e6	1.51e6	1.31e6	1.36e6	inactive
PTPMT1 (Protein tyrosine phosphatase, mitochondrial 1)	1	1.47e6	1.49e6	9.41e5	1.10e6	inactive
M7BP (Myosin-7a binding protein)	1	9.77e5	1.31e6	8.59e5	9.22e5	inactive
CG9928	1	1.58e6	1.68e6	1.29e6	1.46e6	inactive
AOX4 (Aldehyde oxidase 4)	1	1.37e6	1.42e6	1.10e6	1.17e6	inactive
CG9981	1	1.46e6	1.50e6	1.08e6	1.15e6	inactive
scpr-A + scpr-C	1	1.65e6	1.41e6	1.18e6	1.35e6	inactive
Prat (Phosphoribosylamidotransferase)	1	1.64e6	1.62e6	1.34e6	1.38e6	inactive
Rae1	1	7.91e5	1.08e6	8.59e5	7.44e5	inactive
CG5773	1	1.47e6	1.51e6	1.09e6	1.21e6	inactive
fln (flightin)	1	1.49e6	1.55e6	1.18e6	1.27e6	inactive
CG6951	1	1.71e6	1.77e6	1.34e6	1.50e6	inactive
pyx (pyrexia)	1	1.42e6	1.31e6	9.86e5	1.25e6	inactive
pyx (pyrexia)	2	1.42e6	1.38e6	8.29e5	1.15e6	inactive
SppL (Signal peptide peptidase-like)	1	1.50e6	1.40e6	9.91e5	1.06e6	inactive
CG14395	1	1.49e6	1.64e6	1.34e6	1.39e6	inactive
CG7963	1	1.50e6	1.66e6	1.23e6	1.33e6	inactive
CG32985	1	1.64e6	1.62e6	1.20e6	1.30e6	inactive
CG32639	1	1.58e6	1.86e6	1.12e6	1.26e6	inactive
Vha14-1 (Vacuolar H[+] ATPase 14kD subunit 1)	1	1.53e6	1.62e6	1.24e6	1.42e6	inactive
CG9649	1	1.73e6	1.83e6	1.25e6	1.28e6	inactive
Hey (Hairy/E(spl)-related with YRPW motif)	1	1.12e6	9.97e5	5.30e5	6.29e5	active
CG13032	1	1.22e6	1.25e6	1.25e6	1.32e6	inactive
Ino80 (INO80 complex subunit)	1	1.39e6	1.41e6	1.07e6	1.16e6	inactive
Ino80 (INO80 complex subunit)	2	1.50e6	1.46e6	1.30e6	1.38e6	inactive
Ino80 (INO80 complex subunit)	3	1.38e6	1.42e6	1.09e6	1.19e6	inactive
path (pathetic)	1	1.52e6	1.55e6	1.17e6	1.34e6	inactive
CG12299	1	1.07e6	1.14e6	1.08e6	9.92e5	inactive
slo (slowpoke)	1	1.56e6	1.56e6	1.28e6	1.30e6	inactive
E(spl)malpha-BFM (Enhancer of split malpha, Bearded family member)	1	1.75e6	1.71e6	9.26e5	1.03e6	inactive
Pdk (Pyruvate dehydrogenase kinase)	1	1.27e6	1.35e6	1.11e6	1.15e6	inactive
CG13606	1	1.41e6	1.44e6	9.94e5	1.06e6	inactive
CG33252	1	1.53e6	1.83e6	1.13e6	1.26e6	inactive
Kap3 (Kinesin associated protein 3)	1	5.78e5		8.33e5		inactive
ave (aveugle)	1	1.42e6	1.39e6	1.01e6	1.14e6	inactive
Tsp42Er (Tetraspanin 42Er)	1	1.56e6	1.75e6	1.33e6	1.53e6	inactive
CG5346	1	1.34e6	1.53e6	1.23e6	1.13e6	inactive
Aos1 (Activator of SUMO 1)	1	1.56e6	1.45e6	1.19e6	1.29e6	inactive
CG11368	1	1.56e6	1.59e6	1.15e6	1.25e6	inactive
Obp56g (Odorant-binding protein 56g)	1	1.59e6	1.63e6	1.13e6	1.32e6	inactive
Pp1-13C (Protein phosphatase 1 at 13C)	1	1.53e6	1.41e6	9.03e5	9.64e5	inactive
MYPT-75D (Myosin phosphatase targeting subunit 75D)	1	1.47e6	1.52e6	1.35e6	1.38e6	inactive
Eip63E (Ecdysone-induced protein 63E)	1	1.27e6	1.37e6	1.17e6	1.18e6	inactive
Dera (Deoxyribose-phosphate aldolase)	1	1.39e6	1.43e6	1.19e6	1.28e6	inactive
Bub3	1	5.21e5		6.78e5		inactive
Polr1H (RNA polymerase I subunit H)	1	1.42e6	1.45e6	9.88e5	1.05e6	inactive
Gmer (GDP-4-keto-6-deoxy-D-mannose 3,5-epimerase/4-reductase)	1	1.35e6	1.44e6	1.18e6	1.19e6	inactive
CG33460	1	1.60e6	1.61e6	1.07e6	1.31e6	inactive
CG14669	1	1.12e6	1.09e6	7.22e5	7.52e5	active
CG14669	2	1.52e6	1.48e6	1.12e6	1.25e6	inactive
CG14669	3	1.75e6	1.75e6	1.17e6	1.31e6	inactive
CG14669	4	1.39e6	1.62e6	1.21e6	1.29e6	inactive
CG7627	1	1.34e6	1.34e6	7.57e5	9.36e5	inactive
CG16956	1	1.51e6	1.53e6	1.33e6	1.43e6	inactive
Mtr3	1	1.41e6	1.46e6	1.16e6	1.22e6	inactive
CG1227	1	1.67e6	1.83e6	1.43e6	1.59e6	inactive
Surf1 (Surfeit 1)	1	1.48e6	1.40e6	8.52e5	9.36e5	inactive
Surf1 (Surfeit 1)	2	1.41e6	1.46e6	1.19e6	1.19e6	inactive
